{"source": "paper PMC5371897", "system": "NF-kB p50 + NF-kB cRel", "assay": "EMSA", "details": "latent S11 nuclear extract, labeled probe; protein in an extract; label: 32P", "note": "For at least one entry, the source does not settle the construct or the ends of the probe. Where cells or extracts were used, other partners may take part. At least one verdict was read from the data and is not stated in words by the source.", "data": [{"sequence": "AGTTGAGGGGACTTTCCCAGGC (double strand) [NF-kB consensus WT oligonucleotide]", "values": [{"measurement": "binding result", "value": "binds"}]}]}
